Patent publication US20050250853A1, “Beta-tubulin inhibitors” (priority 1999, published 2005)

What was measured:
Format in all cases: cell-based, Chinese hamster
[1] = tested on: CHO 10001 cells (wild-type); assay: MTT cytotoxicity on wild-type CHO cells; settings: Cricetulus griseus, CHO10001, 120 h, read-out: IC50 CHO 10001
Procedure: (§1) Human breast carcinoma cell line, MDA-MB-231, was obtained from the American Type Culture Collection (ATCC HTB-26; Bethesda, Md.). MDA-MB-231 cells were grown in RPMI 1640 medium supplemented with 10% bovine calf serum (Hyclone, Road Logan, Utah). […] These cells were cultured in RPMI 1640 containing 10% fetal bovine serum. SK—N—SH human neuroblastoma cells, (ATCC HTB-11; Bethesda, Md.) were cultured in MEM medium supplemented with 2 mM L-glutamine, 1.5 g/liter sodium bicarbonate, 0.1 mM non-essential amino acids, 1 mM sodium pyruvate and 10% fetal bovine serum. Cells were cultured in a humidified atmosphere at 37° C. in 5% CO2.
(§2) Cytotoxicity was assessed using the MTT assay (3-(4,5-dimethylthiazol-2-yl)-2,5-diphenyltetrazolium bromide) as described by Carmichael et al. (12).
(§3) The cytotoxicity of 4-tBCEU, 4-iPCEU and 4-sBCEU in two CHO cell lines having differential sensitivity to antmicrotubule agents was evaluated. These cell lines are derived from parental CHO-10001 cells and express mutated tubulins.

[2] = tested on: CHO TAX 5-6 cells; assay: MTT cytotoxicity on taxol-resistant CHO cells expressing mutated tubulin; settings: Cricetulus griseus, CHO-TAX 5-6, 120 h, read-out: IC50 CHO TAX 5-6
Procedure: as §1, §2, §3

[3] = tested on: CHO VV 3-2 cells; assay: MTT cytotoxicity on vinblastine- and colchicine-resistant CHO cells expressing mutated tubulin; settings: Cricetulus griseus, CHO-VV 3-2, 120 h, read-out: IC50 CHO VV 3-2
Procedure: as §1, §2, §3

Q: For `COc1cc2c(c(OC)c1OC)-c1ccc(OC)c(=O)cc1[C@@H](NC(C)=O)CC2` [Colchicine, reference compound], which IC50 [1] is on record?
A: The IC50 was 2 ± 0.3 nM.

Q: What about the IC50 [2] of the same molecule?
A: Its IC50 is 0.6 ± 0.01 nM.

Q: What about the IC50 [3] of the same molecule?
A: Its IC50 is 3.6 ± 0.6 nM.
